This experiment has as its target T1, EYFP-tagged AATK (apoptosis-associated tyrosine kinase), wild type (UniProt Q6ZMQ8).
T1 sequence: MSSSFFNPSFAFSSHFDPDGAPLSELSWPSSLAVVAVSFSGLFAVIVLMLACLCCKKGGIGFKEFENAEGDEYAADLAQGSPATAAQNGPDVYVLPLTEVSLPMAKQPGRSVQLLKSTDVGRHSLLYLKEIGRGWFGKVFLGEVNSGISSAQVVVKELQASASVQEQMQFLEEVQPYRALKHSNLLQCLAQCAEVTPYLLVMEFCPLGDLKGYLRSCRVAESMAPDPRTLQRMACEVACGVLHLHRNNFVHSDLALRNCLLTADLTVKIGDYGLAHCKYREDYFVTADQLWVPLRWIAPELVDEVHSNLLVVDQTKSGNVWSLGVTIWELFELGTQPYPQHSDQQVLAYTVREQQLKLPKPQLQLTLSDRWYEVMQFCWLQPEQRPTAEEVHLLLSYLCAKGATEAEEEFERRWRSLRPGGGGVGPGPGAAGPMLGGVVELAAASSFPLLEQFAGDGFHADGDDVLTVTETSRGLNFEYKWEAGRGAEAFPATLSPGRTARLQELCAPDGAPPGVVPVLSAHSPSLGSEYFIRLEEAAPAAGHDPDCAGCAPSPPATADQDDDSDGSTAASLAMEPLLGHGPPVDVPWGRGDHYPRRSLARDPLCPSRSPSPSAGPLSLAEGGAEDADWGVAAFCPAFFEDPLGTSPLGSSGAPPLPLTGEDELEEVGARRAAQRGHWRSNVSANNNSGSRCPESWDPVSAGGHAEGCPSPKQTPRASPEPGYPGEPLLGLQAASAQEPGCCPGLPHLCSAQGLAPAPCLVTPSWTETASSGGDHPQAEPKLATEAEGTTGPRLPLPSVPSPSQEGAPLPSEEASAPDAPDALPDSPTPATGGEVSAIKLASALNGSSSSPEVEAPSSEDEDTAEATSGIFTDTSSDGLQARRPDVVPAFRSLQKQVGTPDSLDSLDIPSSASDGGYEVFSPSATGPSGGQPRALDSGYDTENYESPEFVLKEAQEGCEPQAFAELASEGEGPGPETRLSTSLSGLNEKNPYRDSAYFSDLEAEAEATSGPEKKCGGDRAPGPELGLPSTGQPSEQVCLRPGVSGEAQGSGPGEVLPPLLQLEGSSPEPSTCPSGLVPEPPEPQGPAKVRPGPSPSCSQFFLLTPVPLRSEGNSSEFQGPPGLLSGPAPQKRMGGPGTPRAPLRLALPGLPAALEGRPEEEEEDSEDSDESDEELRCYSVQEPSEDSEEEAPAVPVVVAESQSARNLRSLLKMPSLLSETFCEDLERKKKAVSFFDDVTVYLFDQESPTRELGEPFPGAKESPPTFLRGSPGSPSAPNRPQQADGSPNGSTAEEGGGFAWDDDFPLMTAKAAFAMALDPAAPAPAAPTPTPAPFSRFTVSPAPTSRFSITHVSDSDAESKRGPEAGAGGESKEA
The experiment can be described thus: affinity purification with mass spectrometry; AATK-EYFP vs. EYFP-empty overexpressed in HEK293T cells (24 h); pulldown by GFP Trap (ChromoTek); quantitative mass spectrometry (MaxQuant); three replicate experiments.

Protein sequences, listed by entry. Tags and fused reporters are not part of them.
UniProt P62140: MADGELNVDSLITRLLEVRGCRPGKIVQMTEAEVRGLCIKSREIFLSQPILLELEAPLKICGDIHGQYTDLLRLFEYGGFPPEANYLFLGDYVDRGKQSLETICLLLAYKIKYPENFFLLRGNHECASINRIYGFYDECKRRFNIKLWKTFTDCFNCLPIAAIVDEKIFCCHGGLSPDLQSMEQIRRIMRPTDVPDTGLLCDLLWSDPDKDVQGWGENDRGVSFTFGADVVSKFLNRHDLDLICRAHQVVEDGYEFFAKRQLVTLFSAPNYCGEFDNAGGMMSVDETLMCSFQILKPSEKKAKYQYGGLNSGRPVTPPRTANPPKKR

No constants are given. Whether binding was seen depends on the method and setting. In cells and extracts the contact can be indirect. Here binding means that the protein was enriched with, or labelled near, the bait; the list need not be complete. Sequences can lack the tags named with a protein.

As for PPP1CB (from UniProt P62140 1-327), the binding entry is “binds”.

For the origin of these results see publication PMC9750878.
